Measured values reported in patent US10563263B2, “Genetic polymorphisms associated with statin response and cardiovascular diseases, methods of detection and uses thereof” (CELERA CORPORATION, priority 2010, dated 2020).
The source gives many values for each of these; only a part stands here.

Test system: CHD
Assay: Meta-analysis of CARE and WOSCOPS combined, synergy index, CHD endpoint
Assay type: in vivo, human
From the text: Tables 4-5 provide meta-analyses of CARE and WOSCOPS combined (2nd section of each table) for two endpoints (CHD and CVD) and three genetic models (dominant, recessive, and additive), as well as logistic regression analyses of CARE (3rd section of each table) and WOSCOPS (4th section of each table) individually.
Tables 12 and 17 provide results of meta-analysis of the CARE and WOSCOPS sample sets combined by direct genotyping and by imputing genotypes.
“P” indicates the p-value, and “P(R)” (or “P.R.”) indicates the p-value random effect. Both of these are p-values corresponding to a statistical test of whether the combined synergy index is equal to one but use different assumptions to derive the p-value. “P” is calculated using a fixed effects model, and “P(R)” is calculated using a random effects model.
“OR” indicates the odds ratio (synergy index) calculated from a fixed effects model, and “OR(R)” (or “OR.R.”) indicates the odds ratio (synergy index) calculated from a random effects model.

[1] = rs10021016 allele G GENOTYPIC Genotyped
[2] = rs10116807 allele A RECESSIVE Imputed
[3] = rs10121941 allele C DOMINANT Imputed
[4] = rs10128638 allele G DOMINANT Genotyped
[5] = rs10183431 allele T DOMINANT Imputed
[6] = rs10195401 allele C DOMINANT Imputed
[7] = rs10239416 allele A DOMINANT Imputed
[8] = rs10468988 allele G ADDITIVE Imputed
[9] = rs10478919 allele G DOMINANT Imputed
[10] = rs10506623 allele C DOMINANT Imputed
[11] = rs10506626 allele A DOMINANT Imputed
[12] = rs10509477 allele T DOMINANT Imputed
[13] = rs10511071 allele C DOMINANT Imputed
[14] = rs10511072 allele G DOMINANT Imputed
[15] = rs10511199 allele C ADDITIVE Imputed
[16] = rs10513283 allele G GENOTYPIC Imputed
[17] = rs10520072 allele T DOMINANT Imputed
[18] = rs10733846 allele G ADDITIVE Imputed
[19] = rs10733846 allele G DOMINANT Imputed
[20] = rs10737390 allele T DOMINANT Imputed
[21] = rs10749293 allele G DOMINANT Imputed
[22] = rs10752159 allele G DOMINANT Imputed
[23] = rs10753760 allele T ADDITIVE Imputed
[24] = rs10753760 allele T GENOTYPIC Imputed
[25] = rs10757887 allele C DOMINANT Imputed
[26] = rs10758326 allele A ADDITIVE Imputed
[27] = rs10758326 allele A GENOTYPIC Imputed
[28] = rs10758326 allele A RECESSIVE Imputed
[29] = rs10762236 allele G ADDITIVE Genotyped
[30] = rs10765769 allele C ADDITIVE Imputed
[31] = rs10765769 allele C GENOTYPIC Imputed
[32] = rs10784891 allele C ADDITIVE Imputed
[33] = rs10784891 allele C DOMINANT Imputed
[34] = rs10787923 allele G DOMINANT Imputed
[35] = rs10787949 allele A DOMINANT Imputed
[36] = rs10787951 allele G DOMINANT Imputed
[37] = rs10787983 allele C DOMINANT Imputed
[38] = rs10788380 allele C ADDITIVE Imputed
[39] = rs10788380 allele C DOMINANT Imputed
[40] = rs10788380 allele C GENOTYPIC Imputed
[41] = rs10814418 allele G DOMINANT Imputed
[42] = rs10831417 allele A ADDITIVE Imputed

SMILES: CC[C@H](C)C(=O)O[C@H]1C[C@H](O)C=C2C=C[C@H](C)[C@H](CC[C@@H](O)C[C@@H](O)CC(=O)O)[C@H]21 [Pravastatin, pravastatin]
- OR (rs9881685 allele A DOMINANT Imputed, P 4.29E−06): 0.4876
- OR(R) (rs9881685 allele A DOMINANT Imputed, P(R) 4.29E−06): 0.4876
- Meta-analysis OR (rs9896077 allele G vs A (ref)): 0.66
- OR (rs9936999 allele G DOMINANT Imputed, P 8.52E−05): 1.8486
- OR(R) (rs9936999 allele G DOMINANT Imputed, P(R) 8.52E−05): 1.8486
- OR [1]: 2.2715
- OR(R) [1]: 2.2715
- Meta-analysis OR (rs10106852, A1 (non-ref) G, A2 (ref) A): 1.64
- OR [2]: 3.0277
- OR(R) [2]: 3.0277
- OR [3]: 0.5093
- OR(R) [3]: 0.5093
- OR [4]: 0.6023
- OR(R) [4]: 0.6023
- Meta-analysis OR (rs10155047 allele A vs G (ref)): 0.55
- OR [5]: 1.6438
- OR(R) [5]: 1.6438
- OR [6]: 1.679
- OR(R) [6]: 1.679
- OR [7]: 0.5939
- OR(R) [7]: 0.5939
- Meta-analysis OR (rs10305439 allele A vs C (ref)): 0.62
- Meta-analysis OR (rs10429616 allele G vs A (ref)): 1.85
- Meta-analysis OR (rs10444402 allele G vs A (ref)): 0.69
- Meta-analysis OR (rs10460737, A1 (non-ref) A, A2 (ref) G): 0.24
- OR [8]: 1.5305
- OR(R) [8]: 1.5305
- OR [9]: 0.5722
- OR(R) [9]: 0.5722
- Meta-analysis OR (rs10494924 allele C vs A (ref)): 0.64
- OR [10]: 0.6039
- OR(R) [10]: 0.6039
- OR [11]: 0.5722
- OR(R) [11]: 0.5722
- OR [12]: 1.6135
- OR(R) [12]: 1.6135
- OR [13]: 1.9326
- OR(R) [13]: 1.9381
- OR [14]: 1.9326
- OR(R) [14]: 1.9381
- OR [15]: 1.5246
- OR(R) [15]: 1.5246
- OR [16]: 3.6142
- OR(R) [16]: 3.6142
- OR [17]: 0.5759
- OR(R) [17]: 0.5759
- OR [18]: 0.5881
- OR(R) [18]: 0.5881
- OR [19]: 0.5809
- OR(R) [19]: 0.5809
- OR [20]: 0.5929
- OR(R) [20]: 0.5929
- OR [21]: 1.6321
- OR(R) [21]: 1.6316
- OR [22]: 1.5856
- OR(R) [22]: 1.5961
- OR [23]: 1.4355
- OR(R) [23]: 1.4355
- OR [24]: 2.1142
- OR(R) [24]: 2.1142
- OR [25]: 0.604
- OR(R) [25]: 0.604
- OR [26]: 0.7335
- OR(R) [26]: 0.7335
- OR [27]: 0.5194
- OR(R) [27]: 0.5194
- OR [28]: 0.603
- OR(R) [28]: 0.603
- OR [29]: 0.6093
- OR(R) [29]: 0.6093
- OR [30]: 1.474
- OR(R) [30]: 1.474
- OR [31]: 2.1499
- OR(R) [31]: 2.1499
- OR [32]: 0.711
- OR(R) [32]: 0.711
- OR [33]: 0.5722
- OR(R) [33]: 0.5722
- OR [34]: 1.6581
- OR(R) [34]: 1.6522
- OR [35]: 1.6068
- OR(R) [35]: 1.5927
- OR [36]: 1.6068
- OR(R) [36]: 1.5927
- OR [37]: 1.6153
- OR(R) [37]: 1.6079
- OR [38]: 1.3678
- OR(R) [38]: 1.3678
- OR [39]: 1.7138
- OR(R) [39]: 1.7138
- OR [40]: 1.8999
- OR(R) [40]: 1.8999
- OR [41]: 0.5119
- OR(R) [41]: 0.5119
- Meta-analysis OR (rs10817479, A1 (non-ref) A, A2 (ref) G): 1.66
- OR [42]: 1.4929
- OR(R) [42]: 1.4929
- OR (rs10831417 allele A GENOTYPIC Imputed): 2.3097
